± gives the standard error. Many entries were measured with a wide error.
B1: glmS ribozyme (parent)
chain: AUAAAAGCGCCAGAACUACAGAAAUGUAGUUGACGAGGAGGAGGUUUAUCGAAUUUUCGGCGGAUGCCUCCAAA

Variants of: B1
Experiment: kcat; higher = faster cleavage; RNA array
Conditions: with glucosamine-6-phosphate
How it was run: (§1)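 E. coli RNA polymerase transcribed barcoded ribozyme variants in situ on sequenced MiSeq chips, which were tracked via a hybridised Cy3 probe at 37 °C. Tiles were imaged over ~14 h after glucosamine-6-phosphate (40 μM to 10 mM) in HEPES/KCl/Mg(OAc)2 buffer was flowed in. Normalised per-tile medians were fit to one- or two-exponential decays for kobs, and kcat and KM came from weighted Michaelis–Menten fits.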

Variant	kcat
U47A U56C	0.00368 ± 0.00095 s⁻¹
G32C U56A	7.63e-05 ± 4.4e-05 s⁻¹
U31G A53G	0.0102 ± 0.0085 s⁻¹
G38U C68G	0.000246 ± 5.7e-05 s⁻¹
G38U C68A	3.5e-05 ± 2.9e-05 s⁻¹
U55A U56C	0.017 ± 0.012 s⁻¹
U55A U56G	0.0146 ± 0.0083 s⁻¹
G60A C67A	1.38e-05 ± 8.1e-06 s⁻¹
C50U C67A	3.06e-05 ± 1.8e-05 s⁻¹
G32A U47A	0.00357 ± 0.0028 s⁻¹
G38U G40U	< 1e-05 s⁻¹
U31G G32U	0.00268 ± 0.0014 s⁻¹
G32A U57C	2.67e-05 ± 1.4e-05 s⁻¹
G35U A52G C71G	< 1e-05 s⁻¹
U30A C71G	0.000488 ± 0.00044 s⁻¹
U47G A52U	0.000286 ± 1.4e-05 s⁻¹
G44U	0.000429 ± 5.3e-05 s⁻¹
U47G C71U	0.00207 ± 0.001 s⁻¹
U46C C71A	0.000545 ± 4.7e-05 s⁻¹
A36U U55A	< 1e-05 s⁻¹
A52G U56G	0.00246 ± 0.0016 s⁻¹
A42U A52G	1.76e-05 ± 2.4e-06 s⁻¹
U47C U65G	0.00435 ± 0.0005 s⁻¹
U54C C70U	0.00794 ± 0.0014 s⁻¹
A52G U57G	0.00809 ± 0.0069 s⁻¹
A36C G59A	< 1e-05 s⁻¹
A72C	0.00605 ± 0.0029 s⁻¹

2 entries from above, set out differently:
Variant,kcat
G32C U56A,7.63e-05 ± 4.4e-05 s⁻¹
G44U,0.000429 ± 5.3e-05 s⁻¹

(continued)

Variant	kcat
A52G	0.00319 ± 0.00046 s⁻¹
G40U U47C	0.00133 ± 0.00022 s⁻¹
U54A U65A	0.00834 ± 0.0013 s⁻¹
A48G G51U	< 1e-05 s⁻¹
U30C A64G	0.000351 ± 3.3e-05 s⁻¹
C50U U54C	4.13e-05 ± 2.1e-05 s⁻¹
G32C C68A	2.72e-05 ± 1.8e-05 s⁻¹
G32C C68U	1.25e-05 ± 1.1e-06 s⁻¹
U55G C67U	0.00117 ± 0.00068 s⁻¹
U45C U46G	0.00122 ± 0.00043 s⁻¹
G41U U47A	0.000627 ± 0.00021 s⁻¹
A33C U55C	< 1e-05 s⁻¹
A42G C50A	4.52e-05 ± 2.6e-06 s⁻¹
U46C C68A	5.05e-05 ± 3e-05 s⁻¹
G35A A64G C70G	3.33e-05 ± 1.9e-05 s⁻¹
U55A C67U	0.0203 ± 0.011 s⁻¹
G32U U54G	0.00181 ± 0.0011 s⁻¹
U47G A64G C70G	3.26e-05 ± 9.4e-06 s⁻¹
A39G U57A	0.000584 ± 0.00039 s⁻¹
U55G C68U	0.000455 ± 0.00026 s⁻¹
U69G	0.000255 ± 0.00017 s⁻¹
U31A U69C	0.00454 ± 0.0045 s⁻¹
U54G U56A	0.0949 ± 0.071 s⁻¹
A42U U69A	0.0199 ± 0.015 s⁻¹
U45G U65G G66U U69C	0.00339 ± 0.0019 s⁻¹
C61G A64C	1.15e-05 ± 5.8e-06 s⁻¹
U30C C50A U65A U69G	4.97e-05 ± 2.9e-05 s⁻¹

Reprinted at random: 4 records from the list, in no set order.
Variant	kcat
A42U A52G	1.76e-05 ± 2.4e-06 s⁻¹
U31G A53G	0.0102 ± 0.0085 s⁻¹
U55G C68U	0.000455 ± 0.00026 s⁻¹
G35U A52G C71G	< 1e-05 s⁻¹

Variants of: B1
Experiment: KM; higher = weaker cofactor use; RNA array
Conditions: with glucosamine-6-phosphate
How it was run: as §1

Variant	KM
U47A U56C	3940 ± 1500 µM
G38U C68G	108 ± 52 µM
U55A U56C	12200 ± 10000 µM
U55A U56G	3170 ± 2300 µM
A6C U69A	94.9 ± 95 µM
A6C C50G C61G	74.7 ± 57 µM
U31G G32U	3150 ± 2400 µM
A6U A36C G38A A52U	766 ± 630 µM
U47G A52U	1950 ± 180 µM
G44U	2040 ± 470 µM
U47G C71U	369 ± 300 µM
U46C C71A	811 ± 130 µM
A52G U56G	7880 ± 6900 µM
U47C U65G	3840 ± 610 µM
U54C C70U	507 ± 130 µM
A72C	735 ± 670 µM
A52G	4410 ± 790 µM
G40U U47C	2010 ± 550 µM

Variant	KM
U54A U65A	4300 ± 1100 µM
U30C A64G	1100 ± 200 µM
G32C C68U	1350 ± 620 µM
U2A G29U	2460 ± 1300 µM
U45C U46G	2110 ± 1100 µM
G41U U47A	517 ± 330 µM
A42G C50A	7070 ± 920 µM
G35A A64G C70G	3550 ± 3400 µM
A6C C70U	1350 ± 110 µM
U55A C67U	3030 ± 2000 µM
G32U U54G	10800 ± 10000 µM
A6U A15G	12100 ± 5000 µM
U69G	535 ± 470 µM
U54G U56A	20500 ± 16000 µM
U45G U65G G66U U69C	8560 ± 7400 µM
A6C G13A A36U U56G	180 ± 90 µM
A6U C61G	18.1 ± 17 µM

Variants of: B1
Experiment: self-cleavage kobs at 40 uM GlcN6P; higher = faster cleavage; RNA array
Conditions: with glucosamine-6-phosphate
How it was run: as §1

Variant	self-cleavage kobs at 40 uM GlcN6P
U47A U56C	3.58e-05 ± 1.8e-05 s⁻¹
G44U	< 1e-05 s⁻¹
U46C C71A	2.65e-05 ± 1.5e-05 s⁻¹
A52G U56G	2.83e-05 ± 1.6e-05 s⁻¹

Variants of: B1
Experiment: self-cleavage kobs at 2500 uM GlcN6P; higher = faster cleavage; RNA array
Conditions: with glucosamine-6-phosphate
How it was run: as §1

Variant	self-cleavage kobs at 2500 uM GlcN6P
G38U C68G	0.000391 ± 0.00022 s⁻¹
A42U A52G	1.75e-05 ± 1.7e-05 s⁻¹
U54C C70U	0.00383 ± 0.0025 s⁻¹
C50U U54C	1.7e-05 ± 9.3e-06 s⁻¹
U55A C67U	0.0527 ± 0.037 s⁻¹
U47G A64G C70G	2.35e-05 ± 1.6e-05 s⁻¹

Variants of: B1
Experiment: self-cleavage kobs at 10000 uM GlcN6P; higher = faster cleavage; RNA array
Conditions: with glucosamine-6-phosphate
How it was run: as §1

Variant	self-cleavage kobs at 10000 uM GlcN6P
G38U C68A	1.64e-05 ± 1.3e-05 s⁻¹
G32A U57C	1.88e-05 ± 1.2e-05 s⁻¹
C50U U54C	3.43e-05 ± 1.8e-05 s⁻¹
A42G C50A	2.65e-05 ± 1.4e-05 s⁻¹
U47G A64G C70G	3.51e-05 ± 1.8e-05 s⁻¹

Variants of: B1
Experiment: self-cleavage kobs at 160 uM GlcN6P; higher = faster cleavage; RNA array
Conditions: with glucosamine-6-phosphate
How it was run: as §1

Variant	self-cleavage kobs at 160 uM GlcN6P
C50U C67A	1.94e-05 ± 1.9e-05 s⁻¹
A52G U56G	2.46e-05 ± 1.5e-05 s⁻¹
U47C U65G	0.000193 ± 0.00012 s⁻¹
U54A U65A	0.000233 ± 0.00012 s⁻¹
A6U A15G	2.92e-05 ± 2.7e-05 s⁻¹

Variants of: B1
Experiment: self-cleavage kobs at 640 uM GlcN6P; higher = faster cleavage; RNA array
Conditions: with glucosamine-6-phosphate
How it was run: as §1

Variant	self-cleavage kobs at 640 uM GlcN6P
C50U U54C	2.18e-05 ± 2.1e-05 s⁻¹
U46C C68A	2e-05 ± 1.7e-05 s⁻¹
U47G A64G C70G	4.99e-05 ± 2.5e-05 s⁻¹
A39G U57A	3.34e-05 ± 1.8e-05 s⁻¹
